The record followed here is publication PMC7378245.

By UniProt entry, the sequences of proteins in these tests, tags left out.
UniProt Q9UJV9: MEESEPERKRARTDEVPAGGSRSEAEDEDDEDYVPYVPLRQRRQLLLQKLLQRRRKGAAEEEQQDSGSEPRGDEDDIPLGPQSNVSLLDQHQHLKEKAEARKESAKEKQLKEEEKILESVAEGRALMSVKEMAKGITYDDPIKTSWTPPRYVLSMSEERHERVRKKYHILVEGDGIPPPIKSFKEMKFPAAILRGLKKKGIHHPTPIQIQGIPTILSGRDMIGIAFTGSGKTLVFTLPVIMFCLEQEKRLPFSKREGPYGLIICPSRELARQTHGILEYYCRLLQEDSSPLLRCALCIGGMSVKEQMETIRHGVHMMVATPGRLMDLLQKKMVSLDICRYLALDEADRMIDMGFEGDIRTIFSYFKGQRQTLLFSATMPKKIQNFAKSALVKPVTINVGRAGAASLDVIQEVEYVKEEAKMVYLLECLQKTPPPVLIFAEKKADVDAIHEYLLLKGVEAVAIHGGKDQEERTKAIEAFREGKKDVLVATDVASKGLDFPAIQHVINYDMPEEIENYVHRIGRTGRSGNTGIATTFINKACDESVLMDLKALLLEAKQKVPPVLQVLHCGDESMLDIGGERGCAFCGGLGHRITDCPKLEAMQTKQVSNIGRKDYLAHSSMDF

These are yes or no findings as the source states them, for the method shown. In cells and extracts the contact can be indirect. Some results given as binding are weak or reduced against the parent protein; the word gives no strength.

The target in the experiment is T1, FAM50A (family with sequence similarity 50 member A) (human (endogenous in U-87)) (UniProt Q14320).
T1 sequence: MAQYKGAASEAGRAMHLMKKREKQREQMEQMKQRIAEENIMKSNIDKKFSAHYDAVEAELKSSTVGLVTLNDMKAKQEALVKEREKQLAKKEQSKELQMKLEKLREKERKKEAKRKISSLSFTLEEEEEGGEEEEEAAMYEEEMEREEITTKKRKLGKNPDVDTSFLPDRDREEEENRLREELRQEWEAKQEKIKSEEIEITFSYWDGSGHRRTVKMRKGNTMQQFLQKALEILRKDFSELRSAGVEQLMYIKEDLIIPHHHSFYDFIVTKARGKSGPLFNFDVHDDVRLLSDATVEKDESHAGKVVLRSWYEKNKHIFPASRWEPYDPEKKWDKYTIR
Description: co-IP; semi-native co-IP: U-87 cells transfected with V5-tagged partner, harvested 60 h post-transfection in IP lysis buffer (25 mM Tris, 150 mM NaCl, 1 mM EDTA, 1% NP-40, 5% glycerol); endogenous FAM50A immunoprecipitated with anti-FAM50A antibody overnight at 4 °C on protein A/G PLUS-agarose; washes with 300 mM NaCl, 0.1% Triton X-100; partner detected by anti-V5 blot.

Consider “V5-tagged DDX41 (from UniProt Q9UJV9 1-622)”, for which the binding result was “binds”.
